Consider 39 molecules from the supplement of paper PMC4635364.

Where a name gives a salt, the structure may show the parent alone. The list shows a part of the results. Single values are uncertain here, since repeats match poorly.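 Cells: ReNCell VM human fetal ventral-midbrain neural progenitors, differentiated mitogen-free. Blinded raters compared doublecortin-stained (early neurons) or tyrosine hydroxylase-stained (dopaminergic neurons) images with untreated wells, where 0 means no change. After repeats and both raters were averaged, compounds scoring 2 or above became hits for retesting.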

One assay deals with ReNCell VM. Put plainly: neuronal differentiation score (DCX+ cell fraction vs untreated, manual image score) (score (-3 to 3)); higher = more neuronal differentiation. Particulars: library: LOPAC; 2 uM; 2 weeks.
As for `c1ccc2sc(C3(N4CCCCC4)CCCCC3)cc2c1` [BTCP hydrochloride], the neuronal differentiation score was inactive: 0.

Turning to `CCn1cnc2c(Nc3cccc(Cl)c3)nc(N[C@@H]3CCCC[C@@H]3N)nc21`, the neuronal differentiation score was inactive: 0. Turning to `CC(Cc1ccc(OCC(=O)O)cc1)NCC(O)c1cccc(Cl)c1` (centres undefined), the neuronal differentiation score was inactive: 0.

With `CN1CC[C@@]2(C)c3cc(O)ccc3N(C)C12` (single isomer, unassigned; (-)) [(-)-Eseroline fumarate], the neuronal differentiation score is inactive: 0.

Take `CN1[C@@H]2CC[C@H]1C[C@@H](OC(=O)c1cc(Cl)cc(Cl)c1)C2` [3-Tropanyl-3,5-dichlorobenzoate]: the neuronal differentiation score was inactive: 0. Same read-out and setting: the figure for `O=C1CCCN1CC#CCN1CCCC1` [Oxotremorine sesquifumarate salt] is inactive: 0.

Staying with this assay, now noted: library: Natural; 2 uM; 2 weeks.
For `CC1(C)S[C@@H]2[C@H](N)C(=O)N2[C@H]1C(=O)O` [6-aminopenicillanic acid], the neuronal differentiation score was inactive: 0.

Consider `CN1CCCCC1c1ccc(-c2cccnc2)nc1` (centres undefined) [anabasamine], for which the neuronal differentiation score is inactive: 0.

For the molecule `NC1=NC(=O)C(c2ccccc2)O1` (centres undefined) [deltamine], the neuronal differentiation score is inactive: 0.

Staying with this assay, now noted: library: Phytochemical; 2 uM; 2 weeks.
For the molecule `C/C=C(/C)C(=O)O[C@H]1CC[C@@]2(C)[C@@H]3CC[C@H]4[C@]5(O)C[C@H](O)[C@@]6(O)[C@@H](CN7C[C@@H](C)CC[C@H]7[C@@]6(C)O)[C@]5(O)C[C@]42O[C@]13O` [Veratrine], the neuronal differentiation score is inactive: 0. Same read-out and setting: the figure for `C[N+]1([O-])[C@@H]2CC(OC(=O)[C@H](CO)c3ccccc3)C[C@H]1[C@@H]1O[C@@H]12` (some centres undefined) [Genoscopolamine HBr] is inactive: 0. For the molecule `CC(C)[C@H]1C(=O)O[C@@H]2CCN3CC=C(COC(=O)[C@](C)(O)[C@]1(C)O)[C@H]23` [Trichodesmine], the neuronal differentiation score was inactive: 0.

The assay is the same for the next values; noted with them: library: Prestwick; 2 uM; 2 weeks.
For the molecule `CN(C)C(=O)Oc1cc(OC(=O)N(C)C)cc(C(O)CNC(C)(C)C)c1` (centres undefined) [Bambuterol hydrochloride], the neuronal differentiation score was inactive: 0. As for `C=CCC1(CC(C)C)C(=O)NC(=O)NC1=O` [Butalbital], the neuronal differentiation score is inactive: 0.

Regarding `O=C1CC[C@@]2(O)[C@H]3Cc4ccc(O)c5c4[C@@]2(CCN3CC2CC2)[C@H]1O5` [Naltrexone hydrochloride dihydrate], the neuronal differentiation score is inactive: 0.

The same assay, now with this note: library: Spectrum; 2 uM; 2 weeks.
With `CC1(C)C2CC(=O)[C@]3(C)C(CC[C@@]4(C)[C@H](c5ccoc5)OC(=O)C5OC543)[C@@]2(C)[C@@H](O)C[C@H]1O` (some centres undefined), the neuronal differentiation score was inactive: 0.

`CCOC(=O)c1cncn1[C@H](C)c1ccccc1`: the neuronal differentiation score is inactive: 0. In the case of `Oc1ccc(Cl)cc1Cc1cc(Cl)ccc1O`, the neuronal differentiation score was inactive: 0. The same measure, in the same setting: the figure for `NC(=O)c1cc([N+](=O)[O-])cc([N+](=O)[O-])c1` is inactive: 0; for `COc1ccc(C(=O)O)cc1OC` it is inactive: 0; for `Cl[C@H]1[C@H](Cl)[C@@H](Cl)[C@@H](Cl)[C@H](Cl)[C@H]1Cl` it is inactive: 0. `C[C@H]1O[C@@H](O[C@H]2[C@@H](O)C[C@H](O[C@H]3[C@@H](O)C[C@H](O[C@H]4CC[C@@]5(C)[C@H](CC[C@@H]6[C@@H]5CC[C@]5(C)[C@@H](C7=CC(=O)OC7)[C@@H](O)C[C@]65O)C4)O[C@@H]3C)O[C@@H]2C)C[C@H](O)[C@@H]1O`: the neuronal differentiation score was inactive: 0. Still for that read-out and setting: the figure for `COC(=O)[C@]1(C)CC[C@]2(C)CC[C@]3(C)C4=CC=C5C(=CC(=O)C(O)=C5C)[C@]4(C)CC[C@@]3(C)[C@@H]2C1` is inactive: 0.

In the case of `Nc1nc(N)nc(NC2CC2)n1`, the neuronal differentiation score is inactive: 0. For `CCN(C)C(=O)Oc1cccc([C@H](C)N(C)C)c1`, the neuronal differentiation score was inactive: 0.

On to `O=C(O[C@H]1C[C@H]2CC[C@@H](C1)[N+]21CCCC1)C(O)(c1ccccc1)c1ccccc1`, for which the neuronal differentiation score was inactive: 0.

As to `C[C@]12CC[C@H]3[C@@H](CCC4=CC(=O)CC[C@@]43C)[C@@H]1CC[C@@H]2O`, the neuronal differentiation score was inactive: 0. Same read-out and setting: the figure for `c1ccc2nc(N3CCNCC3)ccc2c1` is inactive: 0; for `C[N+]1(C)[C@@H]2C[C@@H](OC(=O)[C@H](CO)c3ccccc3)C[C@H]1[C@@H]1O[C@@H]12` it is inactive: -1. In the case of `Cc1cccc(C)c1NC(=O)CN1CCCC1=O`, the neuronal differentiation score was inactive: 0. For `CCC1(CC)C(=O)C=CNC1=O`, the neuronal differentiation score is inactive: 0.

Staying with this assay, now noted: library: Tocriscreen; 2 uM; 2 weeks.
`NC(N)=Nc1ccc2[nH]c3c(c2c1)C[C@@]1(O)[C@H]2Cc4ccc(O)c5c4[C@@]1(CCN2CC1CC1)[C@H]3O5` [GNTI dihydrochloride]: the neuronal differentiation score was inactive: 0. Turning to `Cc1onc(O)c1CC(N)C(=O)O` (racemic), the neuronal differentiation score was inactive: 0. The same measure, in the same setting: the figure for `COc1ccc2c(c1)c(CCN1CCOCC1)c(C)n2C(=O)c1cccc(Cl)c1Cl` is inactive: 0; for `C=CCN1C[C@H](C)N([C@H](c2ccc(C(=O)N(CC)CC)cc2)c2cccc(O)c2)C[C@H]1C` it is inactive: 0. In the case of `Cc1cc(C)cc(C(=O)OC2C[C@H]3CC[C@@H](C2)N3C)c1` (some centres undefined) [Tropanyl-3,5-dimethylbenzoate], the neuronal differentiation score is inactive: 0. With `c1ccc(C2CNCc3ccccc32)cc1` (centres undefined) [4-Phenyl-1,2,3,4-tetrahydroisoquinoline hydrochloride], the neuronal differentiation score is inactive: 0. Take `CCCN(CCC)C1CCc2cccc(O)c2C1` (centres undefined) [8-Hydroxy-DPAT hydrobromide]: the neuronal differentiation score was inactive: 0. With `CCCN(CCC)C1CCc2ccc(O)cc2C1` (centres undefined) [7-Hydroxy-DPAT hydrobromide], the neuronal differentiation score is inactive: 0.
